In article PMC11240976:
No constants are given. Whether binding was seen depends on the method and setting. In cells and extracts the contact can be indirect. Binding can be weak; no strength is given. Where a sequence is shown, tags or fusion partners need not be part of it.

Molecular target: Populus euphratica calcium-dependent protein kinase 21 fused to cYFP (Populus euphratica)
Test: split reporter; BiFC; PeCPK21 in pSPY-CE and AtNF-YC3 in pSPY-NE, Agrobacterium GV3101 infiltrated into tobacco (N. benthamiana) leaves, kept in the dark for 48 h; YFP fluorescence by confocal microscopy

binding: binds
B1: Arabidopsis nuclear transcription factor YC3 fused to nYFP (protein, UniProt Q9ZVL3 1-217)
chain: MDQQGQSSAMNYGSNPYQTNAMTTTPTGSDHPAYHQIHQQQQQQLTQQLQSFWETQFKEIEKTTDFKNHSLPLARIKKIMKADEDVRMISAEAPVVFARACEMFILELTLRSWNHTEENKRRTLQKNDIAAAVTRTDIFDFLVDIVPREDLRDEVLGGVGAEAATAAGYPYGYLPPGTAPIGNPGMVMGNPGAYPPNPYMGQPMWQQPGPEQQDPDN
